Values quoted from earlier work as cited in US20200020419A1, “METHODS OF ANALYZING CELLS” (Flagship Pioneering Innovations VI, LLC., priority 2018, published 2020).
At least one structure is not confirmed: it was looked up by name or label, or the drawing left a doubt.

Test system: mouse “progenitor” cell

C=C[C@@]1(C)CC(=O)[C@]2(O)[C@@]3(C)[C@@H](O)CCC(C)(C)[C@@H]3[C@H](O)[C@H](OC(C)=O)[C@@]2(C)O1 [Forskolin]
induction of transition of a mouse progenitor cell into a mouse neuron, known in the literature: known in the literature to be associated with induction of transition of a mouse “progenitor” cell into a mouse neuron
